Laboratory results reported in doi:10.1101/2020.03.15.993147.

Protein sequences, listed by entry. Tags and fused reporters are not part of them. Lines headed by an entry give the natural chain unless they say otherwise; changes in a name come on top.
UniProt Q9Y6W5: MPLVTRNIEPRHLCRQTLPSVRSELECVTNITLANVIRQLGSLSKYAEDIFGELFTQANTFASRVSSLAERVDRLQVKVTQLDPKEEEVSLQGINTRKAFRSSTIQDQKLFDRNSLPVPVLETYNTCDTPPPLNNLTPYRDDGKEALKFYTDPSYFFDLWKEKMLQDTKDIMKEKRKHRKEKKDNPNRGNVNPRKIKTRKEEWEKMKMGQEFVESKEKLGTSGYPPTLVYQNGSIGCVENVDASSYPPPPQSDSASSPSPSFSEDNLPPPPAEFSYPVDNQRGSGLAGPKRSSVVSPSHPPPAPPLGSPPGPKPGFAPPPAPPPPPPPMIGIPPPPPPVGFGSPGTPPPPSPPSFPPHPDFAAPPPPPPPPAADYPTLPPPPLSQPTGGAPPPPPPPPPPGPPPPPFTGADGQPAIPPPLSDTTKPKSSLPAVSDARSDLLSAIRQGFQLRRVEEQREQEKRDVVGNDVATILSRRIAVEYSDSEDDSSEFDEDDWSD
UniProt P05556: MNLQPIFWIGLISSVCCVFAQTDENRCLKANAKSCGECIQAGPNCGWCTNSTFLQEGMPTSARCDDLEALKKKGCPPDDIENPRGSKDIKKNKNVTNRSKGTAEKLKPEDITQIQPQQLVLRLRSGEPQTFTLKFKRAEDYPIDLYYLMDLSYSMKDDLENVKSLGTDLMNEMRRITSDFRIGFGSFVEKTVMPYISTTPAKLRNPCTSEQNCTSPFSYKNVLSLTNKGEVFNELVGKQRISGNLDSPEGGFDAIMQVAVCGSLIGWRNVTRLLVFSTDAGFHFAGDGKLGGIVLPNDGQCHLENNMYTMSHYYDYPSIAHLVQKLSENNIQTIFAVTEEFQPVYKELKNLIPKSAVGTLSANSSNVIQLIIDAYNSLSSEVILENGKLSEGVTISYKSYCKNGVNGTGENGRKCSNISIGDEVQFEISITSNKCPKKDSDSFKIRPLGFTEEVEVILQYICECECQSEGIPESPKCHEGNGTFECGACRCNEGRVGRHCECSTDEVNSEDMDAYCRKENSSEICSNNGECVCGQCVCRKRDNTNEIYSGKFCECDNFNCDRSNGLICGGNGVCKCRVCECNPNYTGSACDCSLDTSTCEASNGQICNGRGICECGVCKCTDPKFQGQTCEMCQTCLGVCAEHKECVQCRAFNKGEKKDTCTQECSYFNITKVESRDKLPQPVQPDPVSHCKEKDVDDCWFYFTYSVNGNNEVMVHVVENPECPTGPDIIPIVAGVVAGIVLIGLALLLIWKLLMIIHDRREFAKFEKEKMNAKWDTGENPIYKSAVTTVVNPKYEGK
UniProt P35240: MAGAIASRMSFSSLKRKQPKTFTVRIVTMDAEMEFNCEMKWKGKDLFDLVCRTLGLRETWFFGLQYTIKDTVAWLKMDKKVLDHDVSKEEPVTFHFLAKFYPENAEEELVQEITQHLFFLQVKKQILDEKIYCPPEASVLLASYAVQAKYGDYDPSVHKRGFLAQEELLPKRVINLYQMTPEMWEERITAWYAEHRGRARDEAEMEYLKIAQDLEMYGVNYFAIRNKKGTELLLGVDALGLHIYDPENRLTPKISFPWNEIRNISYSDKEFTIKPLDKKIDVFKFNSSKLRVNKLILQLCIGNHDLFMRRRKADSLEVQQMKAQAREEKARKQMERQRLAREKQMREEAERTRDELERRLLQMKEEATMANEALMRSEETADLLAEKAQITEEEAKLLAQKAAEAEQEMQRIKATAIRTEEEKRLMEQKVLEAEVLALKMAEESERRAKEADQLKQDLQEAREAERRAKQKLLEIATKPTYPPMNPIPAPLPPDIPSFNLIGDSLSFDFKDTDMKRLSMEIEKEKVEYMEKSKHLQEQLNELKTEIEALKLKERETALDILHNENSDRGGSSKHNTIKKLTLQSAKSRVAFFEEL
UniProt P27986: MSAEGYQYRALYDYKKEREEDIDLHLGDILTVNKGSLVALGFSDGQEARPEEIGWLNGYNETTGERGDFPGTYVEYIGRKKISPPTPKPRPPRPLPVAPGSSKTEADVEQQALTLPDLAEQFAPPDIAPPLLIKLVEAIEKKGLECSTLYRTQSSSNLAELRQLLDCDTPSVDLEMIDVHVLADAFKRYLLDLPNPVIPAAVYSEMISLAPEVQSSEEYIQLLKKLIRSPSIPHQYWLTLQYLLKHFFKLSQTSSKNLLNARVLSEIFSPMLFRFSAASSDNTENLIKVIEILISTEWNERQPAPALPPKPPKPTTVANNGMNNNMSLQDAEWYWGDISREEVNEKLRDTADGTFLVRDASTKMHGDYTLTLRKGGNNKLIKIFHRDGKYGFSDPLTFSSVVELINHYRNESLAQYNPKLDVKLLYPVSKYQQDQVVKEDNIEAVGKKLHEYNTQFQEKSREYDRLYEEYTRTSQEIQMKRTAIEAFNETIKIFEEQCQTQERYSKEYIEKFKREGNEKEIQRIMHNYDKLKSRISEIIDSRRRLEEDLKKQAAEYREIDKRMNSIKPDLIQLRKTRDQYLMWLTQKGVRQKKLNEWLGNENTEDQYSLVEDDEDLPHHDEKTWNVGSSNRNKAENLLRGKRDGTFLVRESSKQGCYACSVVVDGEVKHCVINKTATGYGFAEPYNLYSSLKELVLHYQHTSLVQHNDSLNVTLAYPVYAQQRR
UniProt O00459: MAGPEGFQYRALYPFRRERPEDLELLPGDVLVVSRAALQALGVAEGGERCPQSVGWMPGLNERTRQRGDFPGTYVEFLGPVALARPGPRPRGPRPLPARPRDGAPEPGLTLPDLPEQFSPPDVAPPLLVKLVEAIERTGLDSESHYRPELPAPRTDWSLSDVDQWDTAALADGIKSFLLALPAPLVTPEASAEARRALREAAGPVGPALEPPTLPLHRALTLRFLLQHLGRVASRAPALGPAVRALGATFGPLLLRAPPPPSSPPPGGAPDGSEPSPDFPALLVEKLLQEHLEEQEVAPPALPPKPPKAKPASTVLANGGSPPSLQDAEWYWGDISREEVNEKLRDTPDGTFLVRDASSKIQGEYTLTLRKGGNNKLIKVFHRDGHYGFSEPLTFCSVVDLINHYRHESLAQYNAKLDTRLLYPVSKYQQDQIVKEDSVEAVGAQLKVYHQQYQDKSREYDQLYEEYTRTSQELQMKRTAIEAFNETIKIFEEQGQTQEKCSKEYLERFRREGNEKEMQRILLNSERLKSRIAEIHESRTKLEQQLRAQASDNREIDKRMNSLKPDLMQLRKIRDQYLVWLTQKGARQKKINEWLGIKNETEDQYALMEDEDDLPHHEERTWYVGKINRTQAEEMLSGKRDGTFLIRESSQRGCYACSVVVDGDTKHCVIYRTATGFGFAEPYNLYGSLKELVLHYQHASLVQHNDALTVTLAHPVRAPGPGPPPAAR
UniProt P49023: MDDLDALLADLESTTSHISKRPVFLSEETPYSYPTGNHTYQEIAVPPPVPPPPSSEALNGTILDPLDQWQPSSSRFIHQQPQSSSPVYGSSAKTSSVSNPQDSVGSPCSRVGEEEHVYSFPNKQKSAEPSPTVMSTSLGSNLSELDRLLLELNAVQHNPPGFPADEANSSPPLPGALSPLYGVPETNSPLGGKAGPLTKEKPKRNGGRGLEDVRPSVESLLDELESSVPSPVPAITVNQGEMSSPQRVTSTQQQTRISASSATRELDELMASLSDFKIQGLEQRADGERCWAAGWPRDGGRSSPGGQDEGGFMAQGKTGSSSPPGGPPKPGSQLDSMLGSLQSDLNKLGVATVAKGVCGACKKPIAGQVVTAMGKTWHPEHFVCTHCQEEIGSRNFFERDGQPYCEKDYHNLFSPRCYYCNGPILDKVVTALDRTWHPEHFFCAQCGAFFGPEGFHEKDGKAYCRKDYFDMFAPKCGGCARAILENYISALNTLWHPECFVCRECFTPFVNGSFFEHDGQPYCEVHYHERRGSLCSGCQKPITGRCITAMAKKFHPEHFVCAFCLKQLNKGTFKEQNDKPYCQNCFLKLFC

Biological target: AXL-BirA*-HA (human) (UniProt P30530)
Assay: proximity labelling

| Substance | binding |
| --- | --- |
| WAVE2 (from UniProt Q9Y6W5 1-498) | binds |
| integrin β1 (from UniProt P05556 21-798) | binds |
| merlin (from UniProt P35240 1-595) | binds |
| p85α, regulatory subunit of class IA PI3Ks (from UniProt P27986 1-724) | binds |
| p85β, regulatory subunit of class IA PI3Ks (from UniProt O00459 1-728) | binds |
| paxillin (from UniProt P49023 1-591) | binds |
| vinculin (from UniProt P18206-2) | binds |

These are yes or no findings as the source states them, for the method shown. In cells and extracts the contact can be indirect. A yes stands for co-enrichment or nearness to the bait. Other partners may have been found.
